Source: publication PMC5618632, “In Vitro Glucuronidation of Wushanicaritin by Liver Microsomes, Intestine Microsomes and Expressed Human UDP-Glucuronosyltransferase Enzymes” (International Journal of Molecular Sciences, 2017)

Assay: Activity correlation analysis in a bank of individual HLMs (n = 12)
Type: in vitro ADME, human

COc1ccc(-c2oc3c(CCC(C)(C)O)c(O)cc(O)c3c(=O)c2O)cc1 [wushanicaritin]
correlation factor r (G1 vs AZT glucuronidation (UGT2B7 marker), p = 0.189): 0.407 | correlation factor r (G1 vs CDCA glucuronidation (UGT1A3 marker), p = 0.036): 0.609 | correlation factor r (G1 vs propofol glucuronidation (UGT1A9 marker), p = 0.047): 0.582 | correlation factor r (G1 vs β-estradiol glucuronidation (UGT1A1 marker), p = 0.0005): 0.847 | correlation factor r (G2 vs AZT glucuronidation (UGT2B7 marker), p = 0.123): 0.470 | correlation factor r (G2 vs CDCA glucuronidation (UGT1A3 marker), p = 0.026): 0.638 | correlation factor r (G2 vs propofol glucuronidation (UGT1A9 marker), p = 0.035): 0.611 | correlation factor r (G2 vs β-estradiol glucuronidation (UGT1A1 marker), p = 0.049): 0.577
